Like-named read-outs stand apart in the source and are kept apart here. For at least one compound, name, drawing or mass did not settle the structure.
How the values were obtained:
[1] = From the text: The adducts from trapping with the superoxide radical were produced using the lumiflavin-DTPA system in pyridine, or dimethylformamide. This contains […] of DTPA, […] of lumiflavin and 0.1M of nitrone in pyridine or dimethylformamide.
The operating procedure followed for the study of the decrease of the adduct from trapping is the same as above.

[2] = Kinetics of decomposition (EPR) of superoxide trapping adducts (nitrone-OOH) in phosphate buffer medium
From the text: The adducts from trapping with the superoxide radical were produced using the riboflavin-DTPA (diethylenetriaminepentaacetic acid) system.
This system contains 1M of DTPA, […] of riboflavin and 0.1M of nitrone in a 0.1M phosphate buffer at pH=5.8.
This mixture is transferred into the cell of a Varian E-9 spectrometer. The cell is then irradiated to generate the superoxide radical in situ. At the end of irradiation the decrease in the adducts (nitrone-OOH) is studied using EPR analysis.

[3] = decay of nitrone-OOH adduct, 0.1M phosphate buffer pH=5.8

Question: With `CC1(C)CCC=[N+]1[O-]` [DMPO, 5,5-dimethylpyrroline N-oxide, reference compound] as the molecule, how does the Half-life time ([1]; DMF) read?
Answer: 7.55 min

Question: And the k ([1]; DMF)?
Answer: 1.53 ± 0.02 10^3 s^-1

Question: And the Half-life time ([1]; pyridine)?
Answer: 8.5 min

Question: And the k ([1]; pyridine)?
Answer: 1.36 ± 0.02 10^3 s^-1

Question: And the Half-life time [2, 3]?
Answer: 1.12 min

Question: What about the Kinetic constant k [2, 3] of the same molecule?
Answer: 10.3 ± 0.3 10^3 s^-1

Question: What about the “order of kinetics of disappearance of the adducts” value ([2]; phosphate buffer pH=5.8) of the same molecule?
Answer: first order

Reference: patent publication US5849771A, “Phosphorylated nitrone derivatives, method for preparing same, and compositions containing said derivatives” (Centre National de la Recherche Scientifique (C.N.R.S.), priority 1995, dated 1998)
